Publication doi:10.1101/854497 (bioRxiv, 2020)

Molecular target: T1, Pex17p_(167-199) Gal4p fusion (yeast) (UniProt P40155)
T1 sequence: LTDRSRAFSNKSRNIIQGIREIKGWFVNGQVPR
Assay: two-hybrid

In the case of “second putative coiled-coil domain of Pex14p plus a C-terminal portion, Gal4p fusion (yeast) (domain or fragment)”, the binding is reported as “binds”.

No constants are given. Whether binding was seen depends on the method and setting. A result given as binding can be weak or reduced; the word gives no strength. Tags and fused reporters may be left off the sequences shown.
